Here are results for 59 molecules from PubChem BioAssay AID1273 (Columbia University Molecular Screening Center, 2008).

The other results are listed elsewhere or left out. Shown are side measurements of this screen, not its main read-out; they come without a call. Compounds called inactive in the main read-out are mostly missing here.

A short description of the assay: inhibitors of insulin promoter-driven GFP, primary screen, imaging, TRM-6 cells (human fetal islet line), eGFP reporter, cell count (AID 1273;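 note: cells exposed to compound for 48 h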). The conditions noted are these: measured here: cell count, toxicity, at 2 µM, reporter expression induced with tamoxifen.
Consider `CCOC(=O)c1cnn(C(=O)c2ccccc2)c1N`, for which the normalized cell count turned out to be 63.2%. `CC1Cc2nc(SCC(=O)OCc3ccccc3)n(C)c(=O)c2S1` (centres undefined) came in with a normalized cell count of 48.4%.

Turning to `COc1nc(NCc2ccco2)nc(NC2CCCCC2)n1`, the normalized cell count is 112%. `CCOC(=O)N1CCN(c2ccc(Cl)cc2)CC1` returned a normalized cell count of 121%. In turn, `O=C(Nc1nnc(SCC(=O)N2CCCCC2)s1)C1CCCCC1` came in with a normalized cell count of 67.6%.

Consider `Cc1ccc(C2c3c(oc4ccccc4c3=O)C(=O)N2c2nnc(C)s2)o1` (centres undefined), for which the normalized cell count came to 107%.

`CCCc1cc(C(=O)Nc2sc(C)c(CC)c2C#N)no1` showed a normalized cell count of 106%.

Take `CCCn1c(N)c(C(=O)CSc2nc(C)cs2)c(=O)[nH]c1=O`: the normalized cell count turned out to be 118%.

Consider `COc1cccc(NC(=S)/C(=C(\[O-])c2ccc(C)c([N+](=O)[O-])c2)[n+]2ccccc2)c1`, for which the normalized cell count came to 118%. Take `CCOC(=O)C1CCCN(C(=O)CCc2ccccc2)C1` (centres undefined): the normalized cell count was found to be 72.8%. `CC1(CCc2ccccc2)NC(=S)N(c2ccc(Cl)cc2)N1` (centres undefined) registered a normalized cell count of 103%. As for `C/C(CCc1oc2ccc(Cl)cc2c1-c1ccc(C)o1)=N\O`, the normalized cell count worked out at 128%. In turn, `CC(C)OC(=O)c1c(NC(=O)CCC(=O)O)sc2c1CCCCC2` showed a normalized cell count of 97.8%. On to `O=C(CNC(=O)c1ccccc1C(=O)O)c1ccccc1`, for which the normalized cell count amounted to 37.3%. In turn, `O=C1c2ccccc2C(=O)N1CC(O)CNc1ccc(Br)cc1` (centres undefined) yielded a normalized cell count of 68.4%.

Molecule `CCCC(=O)NCCc1cc2cc(C)c(C)cc2[nH]c1=O` gave a normalized cell count of 137%. For the molecule `CN1CCN(C(=S)NC(=O)c2ccc(C(C)(C)C)cc2)CC1`, the normalized cell count was determined as 120%. `CCN(CC)C(=O)c1ccc2nc(-c3ccccc3)c(-c3ccccc3)nc2c1` displayed a normalized cell count of 218%. `O=S(=O)(N1CCOCC1)n1c(Cc2ccccc2)nc2ccccc21` had a normalized cell count of 11.4%. `NNC(=O)CCc1ccc(S(=O)(=O)N2CCOCC2)cc1` gave a normalized cell count of 93.7%. In turn, `Cc1nc2ccc(NC(=O)N3CCSCC3)cc2nc1C` came in with a normalized cell count of 184%.

On to `CCN(CC)C(=O)CSc1nc(-c2ccc(C)cc2)nc2c1COC(C)(C)C2`, for which the normalized cell count turned out to be 84.5%. In turn, `CCOC(=O)CN1C(=O)N[C@@H](c2ccccc2)C(C(C)=O)=C1C` registered a normalized cell count of 75.5%. `CCc1nc2oc3cc(OC)ccc3c(=O)c2c(=O)n1Cc1ccccc1` yielded a normalized cell count of 109%. `Cc1ccc(Oc2nnc(-c3cccs3)c3ccccc23)cc1` had a normalized cell count of 114%. Regarding `Cc1ccccc1CS(=O)(=O)c1nnc([C@H](Cc2ccccc2)NC(=O)OC(C)(C)C)o1`, the normalized cell count is 87.8%. As to `O=C(c1ccccc1)c1ccc2nc[nH]c2c1`, the normalized cell count worked out at 75.4%.

Turning to `CCOc1ccccc1N/C=C(\C#N)c1nc2ccccc2n1C`, the normalized cell count stood at 101%. The molecule `CCn1c(NC(=O)c2ccco2)c(-c2ccccc2Cl)c(=O)c2ccccc21` registered a normalized cell count of 69.4%.

With `CC(C)(C)c1nc2ccccc2[nH]1`, the normalized cell count stood at 195%. Turning to `CSc1ncccc1C(=O)OCC(=O)c1ccccc1`, the normalized cell count worked out at 119%. Turning to `C=CCn1c(C)cc(C(=O)COC(=O)CNC(=O)c2ccccc2)c1C`, the normalized cell count worked out at 86.3%. `Cc1ccc(Nc2c(-c3ccc(N4CCOCC4)cc3)nc3ncccn23)cc1C` gave a normalized cell count of 107%.

In the case of `Cc1[nH]n(-c2ccccc2)c(=O)c1C(c1ccc(O)c([N+](=O)[O-])c1)c1c(C)[nH]n(-c2ccccc2)c1=O`, the normalized cell count stood at 49.8%. Molecule `CCN(C(=O)c1cn(C)c(=O)c2cc(OC)c(OC)cc12)c1ccccc1C` gave a normalized cell count of 118%. Consider `CC(C)N1CCc2c(sc(NC(=O)c3ccc(S(=O)(=O)N4CCOCC4)cc3)c2C#N)C1`, for which the normalized cell count worked out at 60.9%. The molecule `O=C(O)C1C2CCC(O2)C1C(=O)NCc1ccc(Cl)cc1` (centres undefined) registered a normalized cell count of 90.3%. Regarding `COc1ccc(C2CC(c3cccs3)Nc3nnnn32)cc1` (centres undefined), the normalized cell count came to 120%. On to `CNC(=O)/C=C1\NC(C)(C)Cc2ccccc21`, for which the normalized cell count was determined as 118%. The value for `COc1ccc(N(CC(=O)Nc2nccs2)S(=O)(=O)c2c(C)[nH]c(=O)[nH]c2=O)cc1` was 80.4%; that for `c1ccc(-c2noc(-c3cccnc3)n2)nc1` was 55.5%; that for `CNC(=O)C(=O)N/N=C/c1ccc(Br)cc1` was 58.3%. `Cc1nc2ccc(S(=O)(=O)NCC(=O)N3CCCC(C)C3)cc2s1` (centres undefined) had a normalized cell count of 95.6%. In the case of `c1ccc2c(c1)[nH]c1c(NCC3CCCO3)ncnc12` (centres undefined), the normalized cell count is 145%. With `O=C1Nc2ccc(F)cc2C12Nc1ccccc1-c1nnc(SCc3ccccc3)nc1O2` (centres undefined), the normalized cell count amounted to 90.7%. `COc1ccc2sc(NC(C)=O)nc2c1` had a normalized cell count of 99.7%. For the molecule `C=C(C)CSc1nc2ncccc2[nH]1`, the normalized cell count was 176%. On to `c1ccc(CCNc2ccc3nncn3n2)cc1`, for which the normalized cell count is 68.7%. With `CCOC(=O)c1[nH]c2ccccc2c1NC(=S)Nc1cc(C)ccc1C`, the normalized cell count amounted to 70%. On to `CCNC(=O)N1CCOCC1`, for which the normalized cell count came to 60.3%. `Cc1ccc(CN2CCN(c3ccccn3)CC2)s1` displayed a normalized cell count of 102%. The value for `CC(=O)NC(C)C(=O)OCC(=O)Nc1ccc(Br)cc1` (centres undefined) was 28.9%.

For the molecule `Cc1ccc(OCc2ccc(C(=O)Nc3ccc(C(N)=O)cc3)o2)c([N+](=O)[O-])c1`, the normalized cell count was found to be 90.8%.

`c1ccc(-c2cc(-c3ccccc3)n3ncnc3n2)cc1` came in with a normalized cell count of 82.3%. With `COc1cccc(Nc2nc3ccc(OC)cc3s2)c1`, the normalized cell count was 106%. Under `O=C(CCC(=O)c1cccs1)NCc1ccc(Cl)cc1` stands 105%. In turn, `O=C(Oc1ccc2c(=O)c(Cl)coc2c1)c1ccncc1` returned a normalized cell count of 117%. As for `Cc1ccc(-c2csc(NC(=O)Cc3ccc(F)cc3)n2)o1`, the normalized cell count was 163%. `CCCOc1ccc(/C=N/Nc2ccccc2[N+](=O)[O-])c(OCCC)c1` returned a normalized cell count of 97.3%.
